Test results from publication PMC11125953 (Viruses, 2024).

System: EHV-4 405/76 reference strain
Test: RTCA
Assay type: cell-based, Equid herpesvirus 4
Settings: area under normalized Cell Index curves, 0-120 hpi, EHV-4-infected E. Derm cells

CC(C)c1c(C(=O)Nc2ccccc2)c(-c2ccccc2)c(-c2ccc(F)cc2)n1CC[C@@H](O)C[C@@H](O)CC(=O)O [Atorvastatin]
AUCn (0.4 µM): 40.71 | AUCn (2 µM): 27.80 | AUCn (10 µM): 17.36 | AUCn (50 µM): 13.93
